For two molecules, binding results are on record in publication doi:10.1101/2023.02.22.529553.

Assay [1] concerns the target S. pistillata STING1 cyclic dinucleotide binding domain (S. pistillata). Put plainly: crystal structure; hanging-drop vapor diffusion at 18°C; purified STING at 5 mg/mL in 20 mM HEPES-KOH pH 7.5, 75 mM KCl, 1 mM TCEP with 0.5 mM cyclic dinucleotide (Sp-STING1 with 2′3′-cGAMP, Sp-STING3 with 3′3′-cGAMP); homodimer seen in the crystal; both purified.
The target in assay [2] is S. pistillata STING3 cyclic dinucleotide binding domain (S. pistillata). The assay is described as above.

These are yes or no findings as the source states them, for the method shown. Some results given as binding are weak or reduced against the parent protein; the word gives no strength.

B1: S. pistillata STING1 cyclic dinucleotide binding domain (domain or fragment, UniProt A0A2B4SJD2 181-376)
chain: NVADGLAWSYYFGYLRLVLPRLELRISESEYFRHKITDRKLFILLPKTCFTCDDIEQADSRVKWVGNLPESKINRGGIKERSYKHAVHEIVMPFPDGTEEKYHFIVEYATPLMSLYDMSRFTDAQLTGSERDHQVVLFIRKLTEILGKSEECKGRYELIPFSGDEDKNKIADILVALHNNANIMVDEEAEVSIPTQ
In the case of B1, in assay [1], the binding result is given as “binds”.

B2: S. pistillata STING3 cyclic dinucleotide binding domain (domain or fragment, UniProt A0A2B4SES9 170-354)
chain: NVADGFAWNYYFGYLKLVLPRLEAQIAKSSEFRYKITKKKLYILVPKTCYVYDNIADADPRVTWAGDLTPCKINRGGIKERIYKQAVYRVAMTDKHEYFFILEYASNLMSLYDMSLHEDAPLSRQERDDQVVLFIRKLREILEGCKECRGKCEIVPISGDEKSKIADVLVAIHNATQVESDEADL
As to B2, in assay [2], the binding result is “binds”.
